No constants are given. Whether binding was seen depends on the method and setting. In cells and extracts the contact can be indirect. These calls come from enrichment with a bait or labelling near it, and not all partners need be listed.
B1: V-ATPase subunit H (protein, UniProt P41807 1-478)
chain: MGATKILMDSTHFNEIRSIIRSRSVAWDALARSEELSEIDASTAKALESILVKKNIGDGLSSSNNAHSGFKVNGKTLIPLIHLLSTSDNEDCKKSVQNLIAELLSSDKYGDDTVKFFQEDPKQLEQLFDVSLKGDFQTVLISGFNVVSLLVQNGLHNVKLVEKLLKNNNLINILQNIEQMDTCYVCIRLLQELAVIPEYRDVIWLHEKKFMPTLFKILQRATDSQLATRIVATNSNHLGIQLQYHSLLLIWLLTFNPVFANELVQKYLSDFLDLLKLVKITIKEKVSRLCISIILQCCSTRVKQHKKVIKQLLLLGNALPTVQSLSERKYSDEELRQDISNLKEILENEYQELTSFDEYVAELDSKLLCWSPPHVDNGFWSDNIDEFKKDNYKIFRQLIELLQAKVRNGDVNAKQEKIIIQVALNDITHVVELLPESIDVLDKTGGKADIMELLNHSDSRVKYEALKATQAIIGYTFK

Sequences of proteins named here, by UniProt entry; tags and fusion partners are left off. A change or cut given only in a name is not applied to a line headed by its entry.
UniProt P17255: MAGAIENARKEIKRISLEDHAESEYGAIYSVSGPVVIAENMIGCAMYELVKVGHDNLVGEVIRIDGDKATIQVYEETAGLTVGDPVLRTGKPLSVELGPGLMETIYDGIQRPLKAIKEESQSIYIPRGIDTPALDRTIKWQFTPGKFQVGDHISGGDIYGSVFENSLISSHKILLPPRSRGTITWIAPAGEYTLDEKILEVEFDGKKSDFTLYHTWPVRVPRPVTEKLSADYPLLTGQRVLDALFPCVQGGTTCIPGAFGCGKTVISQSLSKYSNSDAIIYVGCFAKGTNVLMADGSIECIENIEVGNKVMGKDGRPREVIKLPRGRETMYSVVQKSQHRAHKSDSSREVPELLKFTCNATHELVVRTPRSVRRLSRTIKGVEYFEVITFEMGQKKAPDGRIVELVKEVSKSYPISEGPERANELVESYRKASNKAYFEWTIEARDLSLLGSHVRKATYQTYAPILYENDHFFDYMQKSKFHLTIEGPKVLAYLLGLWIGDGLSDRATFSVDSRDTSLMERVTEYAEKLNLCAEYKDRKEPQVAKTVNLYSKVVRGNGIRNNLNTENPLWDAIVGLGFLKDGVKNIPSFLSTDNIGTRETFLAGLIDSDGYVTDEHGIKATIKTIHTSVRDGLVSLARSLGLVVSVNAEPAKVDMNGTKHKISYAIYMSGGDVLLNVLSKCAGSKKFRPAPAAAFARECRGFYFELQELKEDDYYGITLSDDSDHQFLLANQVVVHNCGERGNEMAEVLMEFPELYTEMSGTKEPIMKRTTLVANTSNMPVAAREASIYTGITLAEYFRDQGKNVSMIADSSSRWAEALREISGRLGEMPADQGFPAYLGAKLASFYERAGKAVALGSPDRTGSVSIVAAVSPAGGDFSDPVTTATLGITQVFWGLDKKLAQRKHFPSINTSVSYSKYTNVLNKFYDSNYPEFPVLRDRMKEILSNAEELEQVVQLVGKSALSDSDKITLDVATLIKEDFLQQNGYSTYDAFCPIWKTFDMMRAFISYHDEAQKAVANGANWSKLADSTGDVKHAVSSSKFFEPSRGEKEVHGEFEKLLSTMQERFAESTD
UniProt P32610: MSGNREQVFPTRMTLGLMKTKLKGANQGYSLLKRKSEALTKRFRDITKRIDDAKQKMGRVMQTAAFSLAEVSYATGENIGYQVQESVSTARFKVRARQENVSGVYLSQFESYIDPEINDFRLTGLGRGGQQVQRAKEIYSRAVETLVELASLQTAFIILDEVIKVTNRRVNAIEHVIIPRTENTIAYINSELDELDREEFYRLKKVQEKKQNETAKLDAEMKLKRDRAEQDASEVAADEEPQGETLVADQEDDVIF
UniProt P22203: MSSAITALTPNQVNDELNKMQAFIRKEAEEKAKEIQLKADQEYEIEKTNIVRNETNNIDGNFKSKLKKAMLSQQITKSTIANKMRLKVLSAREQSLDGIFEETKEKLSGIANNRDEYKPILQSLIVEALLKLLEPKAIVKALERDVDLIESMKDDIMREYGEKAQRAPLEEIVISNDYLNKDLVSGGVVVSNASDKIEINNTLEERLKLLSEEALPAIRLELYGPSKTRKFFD
UniProt P39111: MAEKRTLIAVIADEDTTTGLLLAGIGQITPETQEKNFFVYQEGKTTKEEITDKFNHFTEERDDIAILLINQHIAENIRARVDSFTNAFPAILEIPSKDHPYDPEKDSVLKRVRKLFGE
UniProt P48836: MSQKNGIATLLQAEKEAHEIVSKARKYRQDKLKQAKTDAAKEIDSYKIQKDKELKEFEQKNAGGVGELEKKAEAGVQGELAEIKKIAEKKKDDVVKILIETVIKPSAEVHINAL

target: V-ATPase subunit A with carboxy-terminal 3xFLAG (Saccharomyces cerevisiae) (UniProt P17255); test: affinity purification with mass spectrometry; anti-FLAG agarose on lysate of yeast with 3xFLAG on subunit A, no detergent, 100 mM NaCl; eluted with 3xFLAG peptide, 5 mM ATP, 5 mM EDTA; then Superose 6; subunits identified by SDS-PAGE and MALDI-TOF

binding, binds:
V-ATPase subunit D (from UniProt P32610 1-256)
V-ATPase subunit E (from UniProt P22203 1-233)
V-ATPase subunit F (from UniProt P39111 1-118)
V-ATPase subunit G (from UniProt P48836 1-114)
B1
